Measured values as given in PMC4860824, “Targeting the γ-/β-secretase interaction reduces β-amyloid generation and ameliorates Alzheimer’s disease-related pathogenesis” (Cell Discovery, 2015).
These are yes or no findings as the source states them, for the method shown. In cells and extracts the contact can be indirect. Some binding calls cover weakened binding; strength is not graded here.

The chains behind the UniProt entries cited, without tags or fusion partners. Residues count along the entry.
UniProt Q96BI3: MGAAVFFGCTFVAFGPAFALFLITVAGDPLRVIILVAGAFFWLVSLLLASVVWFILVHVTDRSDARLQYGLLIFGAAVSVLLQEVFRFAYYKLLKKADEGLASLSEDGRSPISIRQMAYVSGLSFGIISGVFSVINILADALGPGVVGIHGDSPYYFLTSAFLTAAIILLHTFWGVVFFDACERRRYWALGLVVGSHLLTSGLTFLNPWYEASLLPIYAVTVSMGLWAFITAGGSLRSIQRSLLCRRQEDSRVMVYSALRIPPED
UniProt Q09470: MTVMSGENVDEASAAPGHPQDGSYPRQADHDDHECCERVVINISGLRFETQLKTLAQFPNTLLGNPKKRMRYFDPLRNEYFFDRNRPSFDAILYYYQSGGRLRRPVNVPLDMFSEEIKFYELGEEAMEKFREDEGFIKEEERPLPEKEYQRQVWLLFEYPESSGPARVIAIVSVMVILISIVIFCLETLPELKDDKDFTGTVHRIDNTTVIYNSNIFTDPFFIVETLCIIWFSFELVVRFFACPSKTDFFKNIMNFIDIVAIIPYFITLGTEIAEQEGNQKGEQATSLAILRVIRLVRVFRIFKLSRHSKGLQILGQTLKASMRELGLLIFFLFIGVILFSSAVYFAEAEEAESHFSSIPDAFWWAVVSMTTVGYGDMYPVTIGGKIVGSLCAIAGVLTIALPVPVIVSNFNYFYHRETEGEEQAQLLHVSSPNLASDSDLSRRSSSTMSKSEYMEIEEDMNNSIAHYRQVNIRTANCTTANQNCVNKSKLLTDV
UniProt P56817, residues 46-501: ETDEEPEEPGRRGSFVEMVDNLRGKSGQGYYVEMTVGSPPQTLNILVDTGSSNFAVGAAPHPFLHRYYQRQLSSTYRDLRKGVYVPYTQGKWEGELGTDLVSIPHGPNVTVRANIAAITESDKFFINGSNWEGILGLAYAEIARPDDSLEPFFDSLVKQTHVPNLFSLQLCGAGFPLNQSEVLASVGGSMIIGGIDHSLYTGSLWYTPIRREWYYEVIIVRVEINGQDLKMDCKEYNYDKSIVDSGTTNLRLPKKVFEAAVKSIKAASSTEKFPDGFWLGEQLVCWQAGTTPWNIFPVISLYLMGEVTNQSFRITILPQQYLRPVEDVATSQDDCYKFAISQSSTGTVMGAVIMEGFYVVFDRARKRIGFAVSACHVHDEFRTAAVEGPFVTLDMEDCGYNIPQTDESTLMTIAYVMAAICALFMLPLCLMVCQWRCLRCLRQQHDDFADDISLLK

B1: NTEV-KvBeta1 (protein, UniProt Q14722 1-419)
chain: MLAARTGAAGSQISEENTKLRRQSGFSVAGKDKSPKKASENAKDSSLSPSGESQLRARQLALLREVEMNWYLKLCDLSSEHTTVCTTGMPHRNLGKSGLRVSCLGLGTWVTFGGQISDEVAERLMTIAYESGVNLFDTAEVYAAGKAEVILGSIIKKKGWRRSSLVITTKLYWGGKAETERGLSRKHIIEGLKGSLQRLQLEYVDVVFANRPDSNTPMEEIVRAMTHVINQGMAMYWGTSRWSAMEIMEAYSVARQFNMIPPVCEQAEYHLFQREKVEVQLPELYHKIGVGAMTWSPLACGIISGKYGNGVPESSRASLKCYQWLKERIVSEEGRKQQNKLKDLSPIAERLGCTLPQLAVAWCLRNEGVSSVLLGSSTPEQLIENLGAIQVLPKMTSHVVNEIDNILRNKPYSKKDYRS

Columns and labels:
[1] = biological target: C-terminal Flag-tagged APH1aL (human) (UniProt Q96BI3); experiment: co-IP; as a4 but cells lysed in 1% Triton X-100 buffer; anti-Flag resin, western blot
[2] = biological target: C-terminal Flag-tagged APH1aL (human) (UniProt Q96BI3); experiment: co-IP; HEK293T cells expressing PS1, Pen2, NCT, APH1aL-Flag and BACE1, treated with 3 μM XYT1032, UV-irradiated, lysed in 1% CHAPSO buffer, click reaction, anti-Flag resin, western blot
Kv1.1-CTEV = Kv1.1-CTEV (UniProt Q09470); experiment: split reporter; split-TEV assay: -NTEV and -CTEV fusions co-transfected in HEK293MSR cells with ERT2-tev-LexA-Gal4 and a LexA-op luciferase reporter; luciferase read 24 h after transfection; also after 16 h with chemicals

Molecule	binding [1]	binding [2]	binding (Kv1.1-CTEV)
BACE1 (from UniProt P56817 46-501)	no binding (condition: 1% Triton X-100 extracts)	binds	
B1			binds
